Results of single-concentration screens

Amino acid sequences for entries named in this document (tags omitted). Residues count along the entry.
UniProt Q8IDJ8, 1-583: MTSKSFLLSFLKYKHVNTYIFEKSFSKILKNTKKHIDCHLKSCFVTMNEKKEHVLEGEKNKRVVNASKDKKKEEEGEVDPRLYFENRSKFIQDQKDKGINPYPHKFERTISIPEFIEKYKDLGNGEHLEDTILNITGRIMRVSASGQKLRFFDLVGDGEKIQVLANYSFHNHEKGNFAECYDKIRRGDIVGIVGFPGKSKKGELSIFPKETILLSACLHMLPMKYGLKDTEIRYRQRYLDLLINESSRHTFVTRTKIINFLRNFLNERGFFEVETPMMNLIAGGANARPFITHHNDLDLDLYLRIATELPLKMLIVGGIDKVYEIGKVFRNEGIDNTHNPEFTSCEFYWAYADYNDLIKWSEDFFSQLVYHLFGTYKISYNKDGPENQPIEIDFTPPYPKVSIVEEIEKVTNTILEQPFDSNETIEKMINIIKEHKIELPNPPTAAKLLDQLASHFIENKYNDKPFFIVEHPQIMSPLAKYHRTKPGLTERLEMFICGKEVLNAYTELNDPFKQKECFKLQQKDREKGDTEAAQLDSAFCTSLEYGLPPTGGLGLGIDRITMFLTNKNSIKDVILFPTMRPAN
UniProt I6X8D2, whole entry: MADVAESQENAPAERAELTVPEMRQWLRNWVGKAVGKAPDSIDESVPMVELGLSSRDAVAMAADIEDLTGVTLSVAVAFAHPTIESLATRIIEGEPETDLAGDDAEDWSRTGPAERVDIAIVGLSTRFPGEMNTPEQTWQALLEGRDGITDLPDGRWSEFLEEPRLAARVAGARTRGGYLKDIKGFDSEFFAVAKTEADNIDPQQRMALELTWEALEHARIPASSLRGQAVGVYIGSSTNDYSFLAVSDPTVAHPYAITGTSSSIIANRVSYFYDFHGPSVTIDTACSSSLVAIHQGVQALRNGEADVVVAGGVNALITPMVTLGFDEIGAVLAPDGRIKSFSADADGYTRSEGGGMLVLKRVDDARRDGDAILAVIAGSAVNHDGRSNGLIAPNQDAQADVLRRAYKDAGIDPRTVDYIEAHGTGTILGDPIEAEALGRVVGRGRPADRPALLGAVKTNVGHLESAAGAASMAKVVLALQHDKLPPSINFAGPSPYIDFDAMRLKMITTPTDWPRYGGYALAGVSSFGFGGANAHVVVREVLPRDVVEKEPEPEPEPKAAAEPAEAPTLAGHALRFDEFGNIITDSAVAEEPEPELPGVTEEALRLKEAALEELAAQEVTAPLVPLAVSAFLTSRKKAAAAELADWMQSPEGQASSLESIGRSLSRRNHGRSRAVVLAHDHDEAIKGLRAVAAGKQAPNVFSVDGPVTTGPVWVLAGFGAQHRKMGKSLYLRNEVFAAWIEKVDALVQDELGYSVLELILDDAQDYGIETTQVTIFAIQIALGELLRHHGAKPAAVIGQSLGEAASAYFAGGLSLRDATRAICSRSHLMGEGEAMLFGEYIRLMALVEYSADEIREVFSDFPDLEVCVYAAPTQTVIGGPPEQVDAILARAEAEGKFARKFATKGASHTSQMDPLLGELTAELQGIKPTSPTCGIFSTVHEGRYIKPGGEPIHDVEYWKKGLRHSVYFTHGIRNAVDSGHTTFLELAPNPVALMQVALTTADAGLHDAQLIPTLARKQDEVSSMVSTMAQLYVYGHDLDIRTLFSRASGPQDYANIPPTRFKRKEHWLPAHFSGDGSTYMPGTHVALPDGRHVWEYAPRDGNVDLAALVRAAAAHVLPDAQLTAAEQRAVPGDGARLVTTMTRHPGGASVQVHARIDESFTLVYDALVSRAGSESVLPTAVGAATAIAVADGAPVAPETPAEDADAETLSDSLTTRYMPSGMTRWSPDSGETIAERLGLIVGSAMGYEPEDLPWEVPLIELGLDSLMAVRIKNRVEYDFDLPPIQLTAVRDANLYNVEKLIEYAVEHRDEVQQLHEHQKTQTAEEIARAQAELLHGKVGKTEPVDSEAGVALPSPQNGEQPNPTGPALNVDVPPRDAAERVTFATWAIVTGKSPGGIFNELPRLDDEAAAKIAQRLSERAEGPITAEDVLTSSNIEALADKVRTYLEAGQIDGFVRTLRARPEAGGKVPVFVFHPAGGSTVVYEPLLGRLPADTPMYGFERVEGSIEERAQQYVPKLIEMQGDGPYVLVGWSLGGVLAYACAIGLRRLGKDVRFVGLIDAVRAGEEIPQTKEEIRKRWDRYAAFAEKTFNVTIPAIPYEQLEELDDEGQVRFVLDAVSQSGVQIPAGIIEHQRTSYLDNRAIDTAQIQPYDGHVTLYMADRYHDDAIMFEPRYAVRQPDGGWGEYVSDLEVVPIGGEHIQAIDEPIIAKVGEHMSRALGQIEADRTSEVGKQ
UniProt P9WFT3, whole entry: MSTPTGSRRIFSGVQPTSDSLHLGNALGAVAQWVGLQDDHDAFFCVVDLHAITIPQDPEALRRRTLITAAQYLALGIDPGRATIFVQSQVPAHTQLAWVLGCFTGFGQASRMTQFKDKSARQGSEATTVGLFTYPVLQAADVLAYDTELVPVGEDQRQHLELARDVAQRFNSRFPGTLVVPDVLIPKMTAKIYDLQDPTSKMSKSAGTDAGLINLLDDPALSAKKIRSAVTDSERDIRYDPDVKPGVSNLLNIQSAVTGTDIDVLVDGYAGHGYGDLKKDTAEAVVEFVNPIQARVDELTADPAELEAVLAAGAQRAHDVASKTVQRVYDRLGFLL
UniProt Q4DA54, 1-478: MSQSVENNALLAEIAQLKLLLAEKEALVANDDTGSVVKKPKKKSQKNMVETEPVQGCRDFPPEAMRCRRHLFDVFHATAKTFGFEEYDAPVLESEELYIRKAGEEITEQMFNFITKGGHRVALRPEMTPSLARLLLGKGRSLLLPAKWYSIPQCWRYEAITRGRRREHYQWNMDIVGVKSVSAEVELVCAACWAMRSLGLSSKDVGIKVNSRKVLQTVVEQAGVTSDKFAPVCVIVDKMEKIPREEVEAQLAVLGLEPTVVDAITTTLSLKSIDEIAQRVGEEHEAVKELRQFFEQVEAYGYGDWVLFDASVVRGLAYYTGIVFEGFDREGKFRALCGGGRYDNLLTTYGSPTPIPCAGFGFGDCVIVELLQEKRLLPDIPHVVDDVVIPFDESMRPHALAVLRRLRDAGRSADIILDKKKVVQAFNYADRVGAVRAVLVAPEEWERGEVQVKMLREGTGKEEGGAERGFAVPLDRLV

A: 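Lysine-tRNA ligase, Plasmodium falciparum 3D7 (UniProt Q8IDJ8). Enzyme assay of the cytosolic lysyl-tRNA synthetase in 384-well plates, read by luminescence. Tested at 30 µM. Direction is inferred from only a few compounds that gave an IC50; most scored high, so higher reads as stronger inhibition. Size under these conditions: about 69,000 compounds, about 49 of them at 50% or above in at least one test.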
B: 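Enzyme assay of the thioesterase domain of polyketide synthase 13; the read-out is not stated. Target: Polyketide synthase Pks13, Mycobacterium tuberculosis (UniProt I6X8D2). Compounds at 30 µM. The record gives no direction; the compounds picked for IC50 retests had high values, so higher reads as stronger inhibition. Size under these conditions: about 67,000 compounds, about 300 of them at 50% or above in at least one test.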
C: 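Enzyme assay of tryptophanyl-tRNA synthetase; the read-out is not stated. Target: Tryptophan-tRNA ligase, Mycobacterium tuberculosis (UniProt P9WFT3). Tested at 10 µM. Direction is not recorded; retested compounds ran higher, which suggests that high means inhibition. About 65,000 compounds were tested under these conditions; 0.098% (about 64) showed 50% or more at least once.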
D: 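Enzyme assay of histidyl-tRNA synthetase; the read-out is not stated. Target: Histidine-tRNA ligase, Trypanosoma cruzi CL Brener (UniProt Q4DA54). Concentration: 30 µM. Direction is inferred from retests: higher values go with stronger inhibition. About 69,000 compounds were tested under these conditions; 0.045% (about 31) showed 50% or more at least once.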

Each number is a percent effect as filed.
How 0% and 100% were set is not recorded. Most values in the screen are low, and negative values occur.
The compounds are a random part of those screened.
A dash means the value is not listed here; it may have been measured.

| structure | A | B | C | D |
|---|---|---|---|---|
| `O=C1[C@@H]2CCN(CC3CC3)C[C@@H]2OCCN1c1cccnc1` | -1.553 | - | 3.315 | 1.604 |
| `Cc1ccc(-c2nnc(CN3CCc4cnc(C)nc4C3)o2)cc1` | 3.363 | 12.02 | -4.762 | 21.07 |
| `CC(CNC(=O)Nc1cn[nH]c1)N1CCOCC1` (centres undefined) | 0.26 | -10.79 | -3.518 | 0.3774 |
| `CN(C(=O)Cc1ccc(NC(=O)NC2CCC2)cc1)c1ccccc1` | 3.889 | -23.54 | 13.24 | 0 |
| `Cc1nc(CN2C(=O)C[C@H]3[C@H]2CCN3CC2CCOC2)cs1` (some centres undefined) | 3.408 | 3.759 | 1.119 | 5.025 |
| `CC(C)CCN1CCCC(Cn2cc(CCO)nn2)C1` (centres undefined) | 1.901 | -11.08 | -2.43 | 1.02 |
| `CC(C)c1noc(CCC(=O)NCC2CCOC2)n1` (centres undefined) | 7.812 | 9.194 | -2.787 | 1.887 |
| `CNC(=O)CN1CC[C@H]2CN(C(=O)c3ccccc3C)C[C@H]2C1` | 1.32 | -27.19 | -5.717 | 4.673 |
| `Cc1cc(C)c2cc(CNCc3cccnc3)c3nn(C)c(=O)n3c2c1` | 5.413 | 112.2 | - | 11.11 |
| `CN(Cc1ccc(C2CC(=O)Nc3cc4[nH]ncc4cc32)o1)S(C)(=O)=O` (centres undefined) | -0.04583 | -17.06 | -2.564 | 2.89 |
| `COC(=O)c1ccc(C2SC(C)=Nc3c2c(=O)[nH]n3C2CCCC2)cc1` (centres undefined) | 3.562 | -21.87 | -0.1555 | -7.921 |
| `O=C(CN1CCc2cncnc2C1)Nc1ccc(Cl)cn1` | 1.321 | -16.16 | 18.89 | 11.3 |
| `Cn1ccc(C(=O)NC2CCC23CCN(CC2CCOCC2)CC3)c1` (centres undefined) | 0.4933 | -23.19 | 7.833 | 7.035 |
| `CC(=O)N(C)Cc1ccccc1NC(=O)N(C)CCc1cccs1` | 2.187 | -32.37 | 1.725 | 6.077 |
| `COC(C)c1nc(CN2CCNCC2)cs1` (centres undefined) | 1.78 | -3.045 | -5.403 | 0 |
| `Cc1nc(COc2ccc(OC(C)C(N)=O)cc2)oc1C` (centres undefined) | -0.3269 | 7.247 | -8.536 | 5.155 |
| `O=C(Cc1ccc2c(c1)OCO2)N1CCCN(c2nccs2)CC1` | 2.55 | 7.793 | -2.859 | 0 |
| `CC(CCc1ncnn1Cc1cccc(Cl)c1)N1CCCC1` (centres undefined) | 5.439 | -19.8 | -3.265 | 3.571 |
| `OC(COCc1ccco1)CSc1nnc2ccccn12` (centres undefined) | 1.666 | 1.913 | -4.755 | -2.299 |
| `CCN(Cc1noc(C2CC2)n1)Cc1ccc(C#N)cc1F` | -0.3116 | -5.847 | -0.07886 | 3.415 |
| `CCOc1ccc(Cl)c(C(=O)N2CCCN(CC(N)=O)CC2)n1` | 0.7747 | -11.52 | 0.8763 | 2.874 |
| `Cc1cccc(C(C(=O)N2CCN(C(=O)c3ccc[nH]3)CC2)N(C)C)c1` (centres undefined) | -0.533 | -23.07 | 3.13 | 2.186 |
| `O=C(CC1CC1)N1CCCC2(CCC(=O)N2CC2CC2)CC1` (centres undefined) | 6.334 | -12.62 | -0.6634 | -45.67 |
| `COCCn1cc2c(n1)C(CNCc1nccs1)OCC2` (centres undefined) | 5.718 | -10.56 | -3.176 | 1.869 |
| `CCS(=O)(=O)N1CCC(Nc2c(Cl)cccc2C#N)CC1` | 2.352 | 7.271 | 2.442 | 1.84 |
| `Cc1ccccc1C(=O)N1CC2(COC(C)(C)OC2)C1` | -3.135 | 2.467 | 18.62 | -2.062 |
| `Cc1cc(CNC(=O)Nc2cc(F)cc(N3CCCC3)c2)no1` | 4.317 | 13.04 | 0.7524 | -6.863 |
| `CCOC1COC2(CCN(Cc3ccco3)CC2)C1` (centres undefined) | -0.4359 | -55.65 | -4.77 | -0.9709 |
| `CC(NC(=O)NCCCn1ccnc1)c1nncn1C` (centres undefined) | 0.7535 | -23.44 | 1.864 | -2.632 |
| `Cc1ccc(S(=O)(=O)N2CCC(O)(CN(C)C)C2)cc1` (centres undefined) | 2.653 | 0.515 | - | 7.778 |
| `Cc1cnn(CC(C)NCc2c(C)nn(Cc3ccccc3)c2C)c1` (centres undefined) | 6.567 | -14.53 | -3.233 | 2.439 |
| `CC(C)=CCC1(CO)CCCN(S(=O)(=O)N2CCCC2)C1` (centres undefined) | -1.46 | -11.85 | -2.279 | 3.704 |
| `Cc1cccc(N2N=C(C(=O)NC(C)Cc3ccco3)CCC2=O)c1` (centres undefined) | 3.311 | -36.76 | -2.477 | -3.59 |
| `O=C(CN1CCCCC1)Nc1ncc(Br)cc1Br` | 3.691 | -10.4 | - | 5.78 |
| `COCCN1C[C@H]2CCC[C@@H](CNc3ncccn3)[C@H]2C1` | 4.997 | -9.335 | -2.044 | 2.062 |
| `COCCn1ccc(NC(=O)Nc2cccc(C#N)c2)n1` | -2.998 | -5.638 | 4.287 | 2.5 |
| `c1cncc(CN2CCC(c3csc4nccn34)CC2)c1` | -0.84 | 16.95 | -2.995 | 4.215 |
| `COc1ccc2c(=O)n(CC3CC3)ccc2c1OC` | 6.279 | -18.06 | -5.045 | -1.087 |
| `COc1cnc(N2CC(N3CCOCC3)C2)nc1-c1ccnn1C` | 0.716 | 54.82 | 11.76 | 34.57 |
| `CNCc1cn(CC2CCN(Cc3cccs3)CC2)nn1` | -2.644 | -2.324 | -2.171 | -4.831 |
| `CC(CCc1ccc(O)cc1)NC1CCN(S(C)(=O)=O)CC1` (centres undefined) | -0.04726 | -28.11 | 1.111 | 9.524 |
| `CS(=O)(=O)NCc1cncc2c1CCN(C(=O)N1CCCC1)C2` | -3.114 | -12.69 | 6.826 | 8.571 |
| `Cn1ncc2c(=O)[nH]c(CN3CCCC3c3cccc(F)c3)nc21` (centres undefined) | -2.267 | -2.811 | -5.608 | 5.848 |
| `Cc1noc(CN(C)CC2CCN(CCO)CC2)n1` | 6.181 | 17.17 | -2.557 | 8.867 |

The values are deposited in ChEMBL (CHEMBL3988442, “University of Dundee, Small-Polar-MMV Screening Library” (2021)).